Results taken from patent US9823260B2, “Method to increase bioavailability of the delta-opioid receptor for management of pain and neuropsychiatric disorders” (priority 2014, dated 2017).
For at least one compound, name, drawing or mass did not settle the structure.

Columns and labels:
[1] = test system: SSF-MOR expressed in PC12 cells; assay: Fixed cell immunofluorescence assay of MOR localization in PC12 cells expressing SSF-MOR; type: cell-based, rat; details: 1-hour; NGF 100 ng/mL, Wortmannin 10 μM, LY294002 10 μM
Protocol: Previously, it was shown that the NGF-induced retention is specific to DOR and has minimal effect on MOR^37. It was therefore asked if retention of DOR via PI3K inhibition was also specific to DOR. To determine this specificity, the sufficiency of NGF, and PI3K inhibition by Wortmannin or LY294002, to promote intracellular retention of SSF-MOR expressed in PC12 cells was evaluated using the fixed cell immunofluorescence assay. Under basal no treatment conditions, SSF-MOR was prominently localized to the cell surface. Upon NGF (100 ng/mL), Wortmannin (10 μM), or LY294002 (10 μM) treatment for 1-hour, the majority of the SSF-MOR signal was localization to the cell surface with minimal overlap within the Golgi region.

[2] = test system: PC12 cells expressing SSF-DOR; assay: Fixed cell immunofluorescence assay of DOR localization (intracellular/Golgi retention) in PC12 cells expressing SSF-DOR; type: cell-based, rat; details: no NGF; Wortmannin 10 μM, Chelerythrine 5 μM, PP2 10 μM, Akt ½ kinase inhibitor 1 μM
Excerpt: PC12 cells undergo neuronal specific signaling and differentiation in response to NGF.
To determine the mechanism regulating NGF-induced DOR retention, pharmacologic inhibition of known NGF-TrkA signaling molecules and quantification of the DOR localization via fixed cell immunofluorescence were employed. […]
Alternatively, it was chosen to use the neuroendocrine PC12 cell line as the model system.
To confirm that the NGF-induced internal localization is retention and not only due to increased protein production in response to NGF, the mechanistic evaluation was continued in the presence of Cycloheximide (CHX, 3 μg/mL) to inhibit new protein synthesis. […] Again referring to FIG. 3, for the evaluation of required downstream signaling targets, pharmacologic inhibition of TrkA effectors was performed to determine the pathway required for NGF-induced retention of DOR.
It was therefore sought to determine if inhibition of PI3K via treatment with Wortmannin alone was sufficient to induce intracellular retention of DOR using a fixed cell immunofluorescence assay.

SMILES	change in intracellular retention of MOR (percentage of cells with Golgi localized MOR and percentage of MOR fluorescence within the Golgi) [1]	amount of cells exhibiting intracellular DOR (retention) after inhibitor alone [2]
O=c1cc(N2CCOCC2)oc2c(-c3ccccc3)cccc12 [LY294002]	non-significant change	–
COC[C@H]1OC(=O)c2coc3c2[C@@]1(C)C1=C(C3=O)[C@@H]2CCC(=O)[C@@]2(C)C[C@H]1OC(C)=O [Wortmannin]	non-significant change	significant increase
